These are yes or no findings as the source states them, for the method shown. In cells and extracts the contact can be indirect. Some entries that bind do so weakly or less than the wild type. Sequences can lack the tags named with a protein.
Key:
Assay in all cases: pull-down; capture assay: His-tagged Sgt2 construct coexpressed with MBP-Sbh1 in E. coli; lysate incubated in batch with Ni-NTA resin at 4 °C for 1 h, washed with 20 mM Tris, 150 mM NaCl, 25 mM imidazole, 10 mM BME, pH 7.5, eluted with 300 mM imidazole; Coomassie-stained gel, MBP-Sbh1/Sgt2 ratio normalised to wild type
[1] = target: His-tagged hSgt2-C (hSgt2 213-313) (Homo sapiens) (UniProt O43765)
[2] = target: His-tagged hSgt2-TPR-C (hSgt2 87-313) (Homo sapiens) (UniProt O43765)
[3] = target: His-tagged hSgt2-ΔH0 (hSgt2 228-300) (Homo sapiens) (UniProt O43765)
[4] = target: T1, His-tagged ySgt2-ΔH0 (ySgt2 266-327) (Saccharomyces cerevisiae) (UniProt Q12118)
T1 sequence: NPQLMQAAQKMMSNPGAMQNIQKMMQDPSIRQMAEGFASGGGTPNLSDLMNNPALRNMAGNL

Amino acid sequences for entries named in this document (tags omitted). A change or cut given only in a name is not applied to a line headed by its entry. Chains listed by the source or under a name are the forms on record and can include a tag or linker. Residues count along the entry.
UniProt O43765: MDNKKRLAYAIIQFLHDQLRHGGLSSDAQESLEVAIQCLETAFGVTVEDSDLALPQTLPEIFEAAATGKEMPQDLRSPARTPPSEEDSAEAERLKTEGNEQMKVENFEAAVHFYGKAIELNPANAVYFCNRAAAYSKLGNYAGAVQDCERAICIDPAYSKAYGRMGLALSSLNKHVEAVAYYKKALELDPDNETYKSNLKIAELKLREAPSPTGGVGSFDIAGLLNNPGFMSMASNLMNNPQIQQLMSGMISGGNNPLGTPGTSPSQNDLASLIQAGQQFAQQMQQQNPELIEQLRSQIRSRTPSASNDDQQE
His-tagged hSgt2-TPR-C (hSgt2 87-313): residues 87-313 of O43765
His-tagged hSgt2-C (hSgt2 213-313): residues 213-313 of O43765
His-tagged hSgt2-C_(cons) (hSgt2 219-300): residues 219-300 of O43765
His-tagged hSgt2-ΔH0 (hSgt2 228-300): residues 228-300 of O43765

[5] = target: T2, His-tagged ySgt2-C (ySgt2 222-346) (Saccharomyces cerevisiae) (UniProt Q12118)
T2 sequence: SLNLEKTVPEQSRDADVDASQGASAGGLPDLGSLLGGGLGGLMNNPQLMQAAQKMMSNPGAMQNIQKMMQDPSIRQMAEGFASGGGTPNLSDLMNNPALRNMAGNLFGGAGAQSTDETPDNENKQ

[6] = target: His-tagged hSgt2-C_(cons) (hSgt2 219-300) (Homo sapiens) (UniProt O43765)
[7] = target: T3, His-tagged ySgt2-C_(cons) (ySgt2 260-327) (Saccharomyces cerevisiae) (UniProt Q12118)
T3 sequence: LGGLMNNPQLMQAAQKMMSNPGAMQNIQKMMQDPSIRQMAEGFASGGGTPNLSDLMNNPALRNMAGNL

[8] = target: T4, His-tagged ySgt2-TPR-C (ySgt2 95-346) (Saccharomyces cerevisiae) (UniProt Q12118)
T4 sequence: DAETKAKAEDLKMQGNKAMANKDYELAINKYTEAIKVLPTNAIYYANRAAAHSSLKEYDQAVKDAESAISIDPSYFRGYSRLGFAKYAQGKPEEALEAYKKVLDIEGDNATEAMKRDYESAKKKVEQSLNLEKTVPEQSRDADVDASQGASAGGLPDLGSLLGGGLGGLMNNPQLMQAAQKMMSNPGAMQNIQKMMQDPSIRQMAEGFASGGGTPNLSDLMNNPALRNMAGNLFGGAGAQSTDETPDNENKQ

Measured: binding

B1: MBP-Sbh1 full length (protein, UniProt P52870 1-82)
chain: MSSPTPPGGQRTLQKRKQGSSQKVAASAPKKNTNSNNSILKIYSDEATGLRVDPLVVLFLAVGFIFSVVALHVISKVAGKLF
binds: all assays above

Reference: article PMC8010706
